Reference: paper PMC9835285

By UniProt entry, the sequences of proteins in these tests, tags left out.
UniProt Q9SVD7: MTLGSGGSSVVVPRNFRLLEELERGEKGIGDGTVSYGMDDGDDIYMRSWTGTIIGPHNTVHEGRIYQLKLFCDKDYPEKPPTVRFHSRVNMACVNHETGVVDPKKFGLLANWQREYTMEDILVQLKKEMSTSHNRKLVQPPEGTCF

Tests used:
Assay in all cases: two-hybrid; yeast PJ69-4A co-transformed with Gal4BD-BnUbc13s (pGBT9E) and Gal4AD-AtUev1D (pGAD424E); growth on SD-Trp-Leu-His plus 3-AT and on SD-Trp-Leu-Ade, 3 days at 30 C
[1] = biological target: Gal4BD-BnUbc13A (Brassica napus)
[2] = biological target: Gal4BD-BnUbc13C (Brassica napus)
[3] = biological target: Gal4BD-BnUbc13G (Brassica napus)

Measured: binding

Gal4AD-AtUev1D (from UniProt Q9SVD7 1-146)
binds: all assays above

No constants are given. Whether binding was seen depends on the method and setting. A result given as binding can be weak or reduced; the word gives no strength.
